Experimental data as given in publication PMC3079718.
Results are given in words; binding and its absence hold for the method and conditions named. Some binding calls cover weakened binding; strength is not graded here. Tags and fused reporters may be left off the sequences shown.

Columns and labels:
Experiment in all cases: two-hybrid; bait in pGBKT7, prey in pGADT7-Rec, co-transformed into yeast strain AH109; quantitative beta-galactosidase activity of the colonies
[1] = molecular target: T1, pGBK-AtGILPC (C-terminal domain of AtGILP fused to the DNA binding domain of GAL4) (Arabidopsis thaliana) (UniProt Q94CD4)
T1 sequence: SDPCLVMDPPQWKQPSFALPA

[2] = molecular target: T2, pGBK-AtGILP (AtGILP fused to the DNA binding domain of GAL4) (Arabidopsis thaliana) (UniProt Q94CD4)
T2 sequence: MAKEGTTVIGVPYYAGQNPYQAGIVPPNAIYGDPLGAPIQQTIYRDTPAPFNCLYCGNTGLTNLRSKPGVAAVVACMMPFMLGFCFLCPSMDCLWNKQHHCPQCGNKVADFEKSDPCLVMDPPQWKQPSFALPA

[3] = molecular target: T3, pGBK-AtGILPN (N-terminal domain of AtGILP fused to the DNA binding domain of GAL4) (Arabidopsis thaliana) (UniProt Q94CD4)
T3 sequence: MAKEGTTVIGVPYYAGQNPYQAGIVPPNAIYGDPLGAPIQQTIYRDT

- binding [1]: binds
- binding [2]: binds
- binding [3]: binds
B1: pGAD-AtPILP1 (Arabidopsis thaliana Pirh2-like protein 1 in the prey vector pGADT7-Rec) (protein, UniProt Q8VZK0 1-267)
chain: MEASPNDRLHFGKMGFGCKHYKRRCQIRAPCCNEVFDCRHCHNESTSTLRNIYDRHDLVRQDVKQVICSVCDTEQPAAQVCSNCGVNMGEYFCSICIFYDDDTEKQQFHCDDCGICRVGGRENFFHCKKCGSCYAVGLRNNHRCVENSMRHHCPICYEYLFDSLKDTNVMKCGHTMHVECYNEMIKRDKFCCPICSRSVIDMSKTWQRLDEEIEATAMPSDYRDKKVWILCNDCNDTTEVHFHIIGQKCGHCRSYNTRAIAPPVLPQ
